Consider one sequence from patent US5534418.

The exact form of at least one protein or probe is not confirmed. Results from cells or extracts need not show a direct contact.

The subject of the data set is T3 receptor (thyroid hormone receptor, GC2 pituitary cell nuclear extract) (Rattus norvegicus). In words: footprint. To be noted: DNase I protection of antisense strand -179 to -164 in GH enhancer by crude GC2 nuclear extract; buffer A, 22 C; protein in an extract; protein details: 125I-T3 labeled; label: 32P.

In the case of “CAGGGACGTGACCGCA (double strand) [rat GH T3 response element footprint (-179 to -164)]”, the binding result is “binds”.
